Assay results from patent publication US20230040568A1.
No constants are given. Whether binding was seen depends on the method and setting. Some entries that bind do so weakly or less than the wild type. Where a sequence is shown, tags or fusion partners need not be part of it.

Biological target: T1, TMIGD2 expressed on 3T3 cells (UniProt Q96BF3)
T1 sequence (looked up): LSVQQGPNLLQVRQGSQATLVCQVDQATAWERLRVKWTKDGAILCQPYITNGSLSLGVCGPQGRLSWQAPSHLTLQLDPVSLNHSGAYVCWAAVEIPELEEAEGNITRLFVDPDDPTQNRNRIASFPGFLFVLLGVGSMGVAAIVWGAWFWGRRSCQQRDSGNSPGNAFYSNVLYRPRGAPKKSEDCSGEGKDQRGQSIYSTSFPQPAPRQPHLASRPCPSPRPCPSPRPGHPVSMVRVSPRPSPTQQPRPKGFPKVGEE
Test: FACS, staining of 3T3 cells expressing TMIGD2 (FIG. 8)

binding: binds
B1: HHLA2-IgV1-hIgG fusion polypeptide (Fc fusion, UniProt Q9UM44 23-137, looked up, not shown: a dimerising Fc or GST)
chain: IFPLAFFIYVPMNEQIVIGRLDEDIILPSSFERGSEVVIHWKYQDSYKVHSYYKGSDHLESQDPRYANRTSLFYNEIQNGNASLFFRRVSLLDEGIYTCYVGTAIQVITNKVVLK
